Measurements reported in PMC5763115, “Nesprin-2 Interacts with Condensin Component SMC2” (International Journal of Cell Biology, 2017).
These are yes or no findings as the source states them, for the method shown. Binding seen in cells or lysates may run through a third protein. Sequences can lack the tags named with a protein.

Biological target: T1, GST-Nesprin-2-SMC (human) (UniProt Q8WXH0)
T1 sequence: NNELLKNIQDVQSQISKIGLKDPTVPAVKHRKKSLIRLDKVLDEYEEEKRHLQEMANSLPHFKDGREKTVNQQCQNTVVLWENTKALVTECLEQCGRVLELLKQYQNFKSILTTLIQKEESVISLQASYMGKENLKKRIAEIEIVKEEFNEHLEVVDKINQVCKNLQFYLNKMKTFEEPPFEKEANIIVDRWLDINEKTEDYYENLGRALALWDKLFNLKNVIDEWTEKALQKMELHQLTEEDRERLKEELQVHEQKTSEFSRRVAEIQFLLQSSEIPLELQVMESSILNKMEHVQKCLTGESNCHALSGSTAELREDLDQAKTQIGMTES
Assay: pull-down; GST-Nesprin-2-SMC or GST on Glutathione-Sepharose 4B beads incubated overnight with HaCaT cell lysate (50 mM Tris-HCl pH 7.5, 150 mM NaCl, 1% Nonidet P-40, 0.5% sodium deoxycholate); western blot; unsynchronized cells, and for SMC2 also cells in G0/G1 and enriched for S and M phase (RO-3306 or thymidine/Nocodazole); only the target purified

SMC1 (human (endogenous in HaCaT))
binding: no binding
